Results are given in words; binding and its absence hold for the method and conditions named. Some entries that bind do so weakly or less than the wild type.

For assay [1], the target named is T1, MTH1203 (Methanothermobacter thermautotrophicus …, UniProt O27271 1-636).
T1 sequence: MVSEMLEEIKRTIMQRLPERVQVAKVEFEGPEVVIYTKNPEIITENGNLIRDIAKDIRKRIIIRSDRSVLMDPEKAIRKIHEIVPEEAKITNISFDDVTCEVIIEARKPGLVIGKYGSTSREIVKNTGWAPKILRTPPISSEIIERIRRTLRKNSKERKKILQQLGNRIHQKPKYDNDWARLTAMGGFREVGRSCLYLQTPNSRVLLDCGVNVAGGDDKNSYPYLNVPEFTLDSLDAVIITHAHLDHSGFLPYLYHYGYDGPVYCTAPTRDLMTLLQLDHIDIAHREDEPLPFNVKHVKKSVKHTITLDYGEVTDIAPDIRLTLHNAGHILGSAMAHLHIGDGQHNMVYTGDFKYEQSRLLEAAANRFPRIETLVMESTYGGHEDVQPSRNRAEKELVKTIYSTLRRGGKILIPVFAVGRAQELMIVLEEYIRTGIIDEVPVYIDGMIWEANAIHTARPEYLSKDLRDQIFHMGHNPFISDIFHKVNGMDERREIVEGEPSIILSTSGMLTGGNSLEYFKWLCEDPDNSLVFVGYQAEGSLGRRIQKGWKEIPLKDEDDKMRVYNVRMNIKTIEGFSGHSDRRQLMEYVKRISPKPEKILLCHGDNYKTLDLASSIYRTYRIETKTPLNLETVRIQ
The experiment in a line: SEC-MALS; MTH1203 mixed with the exosome core (Figure S7); both purified. (In general: Size exclusion chromatography separates by hydrodynamic size, large species first.)

In assay [2] the target is T1, MTH1203. The experiment in a line: crystal structure; space group P4(1)2(1)2, 3.1 Å, two molecules in the asymmetric unit; His-tag removed; dimer assembly analysed with PISA; both purified.

B1: exosome core, formed by the MTH682 and MTH683 proteins (complex, UniProt O26778 1-271; O26779 1-240)
chain 1: MVNKMDIIPEITRKSITDLINNKERIDGRSLHEFRDISIETGVISKAEGSSRVKLGNTQIIVGVKPQIGEPFPDTPEMGVILTNSELLPMASPTFEPGPPDERSVELSRVVDRCIRESRMIDLEKLCIIEGSKVWMLFLDLHIIDYDGNLFDAAVLATVAALLDTRIPAAEVEDGEVVINREKMQPLPVNRKALMCTFAKIGNEIVLDPSLEEEDILTARISIGVTEEGSICAMQKGGEGPLTRDDVLKAVSIAVEKVPQLIEYLDKSMTP
chain 2: MITIITQDQLKTSPSVREDGRAFDELRPLKIEAGILERADGSSYLEFGGNKILVAVYGPREAQIRKLQRPDRAVIRCRYNMAPFSVEERKRPGPDRRSVEISKITAEALRPALILEKFPRSVIDVFIEVLEAEGGTRCAGITAASVALADAGIPMRDMVVACAAGKVGDQVVLDLSEEEDKEGQADVPVAILPRTREITLLQSDGNLTPEEFERALDLAVEGCLRIHEVQKEALRKRYGE
For B1, the binding entry with MTH1203 [1] is “no binding”.

B2: MTH1203 (enzyme, Methanothermobacter thermautotrophicus, UniProt O27271 1-636, looked up)
chain: T1 sequence
notes: MTH1203 from Methanothermobacter thermautotrophicus strain delta H; mth1203 gene amplified from genomic DNA, cloned into pETYSBLIC-3C; predicted molecular mass 73.1 kDa; residues up to 636 named; Dimer at 0.5-0.7 M NaCl or KCl, monomer at 1 M NaCl; full cloning and purification details are in the Supplemental Experimental Procedures; also called β-CASP metallo-β-lactamase family nuclease; source: …
With B2, in the assay with MTH1203 [2], the binding result was “binds”.
